From the supplement of paper PMC10849652
Some of the results follow.

Protein sequences, listed by entry. Tags and fused reporters are not part of them. Lines headed by an entry give the natural chain unless they say otherwise; changes in a name come on top.
UniProt Q8TF40: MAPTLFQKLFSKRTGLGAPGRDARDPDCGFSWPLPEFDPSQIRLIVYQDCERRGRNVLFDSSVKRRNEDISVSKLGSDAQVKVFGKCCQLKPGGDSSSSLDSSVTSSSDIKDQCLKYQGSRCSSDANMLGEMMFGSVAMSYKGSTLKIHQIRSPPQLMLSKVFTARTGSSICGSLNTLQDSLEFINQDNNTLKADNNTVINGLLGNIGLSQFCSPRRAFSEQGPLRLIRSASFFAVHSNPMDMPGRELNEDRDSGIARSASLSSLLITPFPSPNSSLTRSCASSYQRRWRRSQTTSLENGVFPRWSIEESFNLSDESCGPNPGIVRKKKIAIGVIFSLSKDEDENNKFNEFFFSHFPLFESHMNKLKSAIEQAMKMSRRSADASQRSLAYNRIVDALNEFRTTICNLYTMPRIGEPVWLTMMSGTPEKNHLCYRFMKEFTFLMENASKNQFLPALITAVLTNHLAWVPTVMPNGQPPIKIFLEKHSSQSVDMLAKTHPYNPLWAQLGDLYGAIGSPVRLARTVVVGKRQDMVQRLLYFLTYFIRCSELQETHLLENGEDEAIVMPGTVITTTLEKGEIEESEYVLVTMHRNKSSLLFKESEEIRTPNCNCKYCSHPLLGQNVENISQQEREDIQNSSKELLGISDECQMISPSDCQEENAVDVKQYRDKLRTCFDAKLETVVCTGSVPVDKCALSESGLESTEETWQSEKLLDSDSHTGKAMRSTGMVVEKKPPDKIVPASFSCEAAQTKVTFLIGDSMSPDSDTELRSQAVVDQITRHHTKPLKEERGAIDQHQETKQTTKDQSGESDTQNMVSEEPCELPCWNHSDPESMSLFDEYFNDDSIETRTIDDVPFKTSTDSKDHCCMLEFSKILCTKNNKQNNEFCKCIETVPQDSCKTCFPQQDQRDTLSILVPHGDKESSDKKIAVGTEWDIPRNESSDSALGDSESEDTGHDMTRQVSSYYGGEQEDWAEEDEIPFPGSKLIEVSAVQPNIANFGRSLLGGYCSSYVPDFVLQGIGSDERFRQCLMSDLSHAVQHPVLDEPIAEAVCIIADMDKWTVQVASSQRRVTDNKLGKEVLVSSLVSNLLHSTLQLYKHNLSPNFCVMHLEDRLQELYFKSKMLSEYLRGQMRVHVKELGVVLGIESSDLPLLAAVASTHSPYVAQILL
UniProt P10109: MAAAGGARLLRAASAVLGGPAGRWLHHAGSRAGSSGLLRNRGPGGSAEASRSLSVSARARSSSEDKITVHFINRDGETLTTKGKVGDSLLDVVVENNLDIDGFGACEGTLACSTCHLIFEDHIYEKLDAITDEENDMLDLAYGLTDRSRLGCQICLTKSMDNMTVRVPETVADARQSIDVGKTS
UniProt Q96IG2: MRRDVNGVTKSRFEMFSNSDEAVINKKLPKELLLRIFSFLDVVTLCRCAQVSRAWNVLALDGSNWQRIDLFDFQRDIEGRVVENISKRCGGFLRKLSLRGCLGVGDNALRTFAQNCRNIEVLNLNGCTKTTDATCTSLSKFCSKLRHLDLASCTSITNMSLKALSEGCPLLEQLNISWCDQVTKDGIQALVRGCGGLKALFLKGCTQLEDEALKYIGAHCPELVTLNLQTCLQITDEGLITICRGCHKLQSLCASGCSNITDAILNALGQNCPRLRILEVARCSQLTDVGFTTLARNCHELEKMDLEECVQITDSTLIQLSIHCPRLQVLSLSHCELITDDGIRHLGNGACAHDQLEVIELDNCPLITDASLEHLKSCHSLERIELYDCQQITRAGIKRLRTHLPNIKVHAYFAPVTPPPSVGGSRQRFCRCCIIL
UniProt Q9UK73, whole entry, looked up: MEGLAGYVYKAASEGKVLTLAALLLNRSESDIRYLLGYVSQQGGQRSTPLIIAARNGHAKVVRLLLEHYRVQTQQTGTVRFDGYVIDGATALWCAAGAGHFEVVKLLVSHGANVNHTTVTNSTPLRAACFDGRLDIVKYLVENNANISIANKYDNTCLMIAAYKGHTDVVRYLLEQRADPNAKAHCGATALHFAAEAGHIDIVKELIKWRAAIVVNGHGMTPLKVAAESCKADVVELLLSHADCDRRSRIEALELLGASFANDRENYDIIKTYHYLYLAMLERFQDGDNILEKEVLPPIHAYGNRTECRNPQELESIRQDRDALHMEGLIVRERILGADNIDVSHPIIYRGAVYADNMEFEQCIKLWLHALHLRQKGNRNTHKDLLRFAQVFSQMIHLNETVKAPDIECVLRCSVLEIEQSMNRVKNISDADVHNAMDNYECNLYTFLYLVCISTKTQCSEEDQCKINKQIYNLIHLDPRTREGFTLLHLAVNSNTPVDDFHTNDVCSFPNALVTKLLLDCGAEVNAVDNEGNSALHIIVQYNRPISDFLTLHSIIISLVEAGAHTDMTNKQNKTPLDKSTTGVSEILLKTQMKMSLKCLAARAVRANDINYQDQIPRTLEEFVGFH
UniProt O75369, whole entry, looked up: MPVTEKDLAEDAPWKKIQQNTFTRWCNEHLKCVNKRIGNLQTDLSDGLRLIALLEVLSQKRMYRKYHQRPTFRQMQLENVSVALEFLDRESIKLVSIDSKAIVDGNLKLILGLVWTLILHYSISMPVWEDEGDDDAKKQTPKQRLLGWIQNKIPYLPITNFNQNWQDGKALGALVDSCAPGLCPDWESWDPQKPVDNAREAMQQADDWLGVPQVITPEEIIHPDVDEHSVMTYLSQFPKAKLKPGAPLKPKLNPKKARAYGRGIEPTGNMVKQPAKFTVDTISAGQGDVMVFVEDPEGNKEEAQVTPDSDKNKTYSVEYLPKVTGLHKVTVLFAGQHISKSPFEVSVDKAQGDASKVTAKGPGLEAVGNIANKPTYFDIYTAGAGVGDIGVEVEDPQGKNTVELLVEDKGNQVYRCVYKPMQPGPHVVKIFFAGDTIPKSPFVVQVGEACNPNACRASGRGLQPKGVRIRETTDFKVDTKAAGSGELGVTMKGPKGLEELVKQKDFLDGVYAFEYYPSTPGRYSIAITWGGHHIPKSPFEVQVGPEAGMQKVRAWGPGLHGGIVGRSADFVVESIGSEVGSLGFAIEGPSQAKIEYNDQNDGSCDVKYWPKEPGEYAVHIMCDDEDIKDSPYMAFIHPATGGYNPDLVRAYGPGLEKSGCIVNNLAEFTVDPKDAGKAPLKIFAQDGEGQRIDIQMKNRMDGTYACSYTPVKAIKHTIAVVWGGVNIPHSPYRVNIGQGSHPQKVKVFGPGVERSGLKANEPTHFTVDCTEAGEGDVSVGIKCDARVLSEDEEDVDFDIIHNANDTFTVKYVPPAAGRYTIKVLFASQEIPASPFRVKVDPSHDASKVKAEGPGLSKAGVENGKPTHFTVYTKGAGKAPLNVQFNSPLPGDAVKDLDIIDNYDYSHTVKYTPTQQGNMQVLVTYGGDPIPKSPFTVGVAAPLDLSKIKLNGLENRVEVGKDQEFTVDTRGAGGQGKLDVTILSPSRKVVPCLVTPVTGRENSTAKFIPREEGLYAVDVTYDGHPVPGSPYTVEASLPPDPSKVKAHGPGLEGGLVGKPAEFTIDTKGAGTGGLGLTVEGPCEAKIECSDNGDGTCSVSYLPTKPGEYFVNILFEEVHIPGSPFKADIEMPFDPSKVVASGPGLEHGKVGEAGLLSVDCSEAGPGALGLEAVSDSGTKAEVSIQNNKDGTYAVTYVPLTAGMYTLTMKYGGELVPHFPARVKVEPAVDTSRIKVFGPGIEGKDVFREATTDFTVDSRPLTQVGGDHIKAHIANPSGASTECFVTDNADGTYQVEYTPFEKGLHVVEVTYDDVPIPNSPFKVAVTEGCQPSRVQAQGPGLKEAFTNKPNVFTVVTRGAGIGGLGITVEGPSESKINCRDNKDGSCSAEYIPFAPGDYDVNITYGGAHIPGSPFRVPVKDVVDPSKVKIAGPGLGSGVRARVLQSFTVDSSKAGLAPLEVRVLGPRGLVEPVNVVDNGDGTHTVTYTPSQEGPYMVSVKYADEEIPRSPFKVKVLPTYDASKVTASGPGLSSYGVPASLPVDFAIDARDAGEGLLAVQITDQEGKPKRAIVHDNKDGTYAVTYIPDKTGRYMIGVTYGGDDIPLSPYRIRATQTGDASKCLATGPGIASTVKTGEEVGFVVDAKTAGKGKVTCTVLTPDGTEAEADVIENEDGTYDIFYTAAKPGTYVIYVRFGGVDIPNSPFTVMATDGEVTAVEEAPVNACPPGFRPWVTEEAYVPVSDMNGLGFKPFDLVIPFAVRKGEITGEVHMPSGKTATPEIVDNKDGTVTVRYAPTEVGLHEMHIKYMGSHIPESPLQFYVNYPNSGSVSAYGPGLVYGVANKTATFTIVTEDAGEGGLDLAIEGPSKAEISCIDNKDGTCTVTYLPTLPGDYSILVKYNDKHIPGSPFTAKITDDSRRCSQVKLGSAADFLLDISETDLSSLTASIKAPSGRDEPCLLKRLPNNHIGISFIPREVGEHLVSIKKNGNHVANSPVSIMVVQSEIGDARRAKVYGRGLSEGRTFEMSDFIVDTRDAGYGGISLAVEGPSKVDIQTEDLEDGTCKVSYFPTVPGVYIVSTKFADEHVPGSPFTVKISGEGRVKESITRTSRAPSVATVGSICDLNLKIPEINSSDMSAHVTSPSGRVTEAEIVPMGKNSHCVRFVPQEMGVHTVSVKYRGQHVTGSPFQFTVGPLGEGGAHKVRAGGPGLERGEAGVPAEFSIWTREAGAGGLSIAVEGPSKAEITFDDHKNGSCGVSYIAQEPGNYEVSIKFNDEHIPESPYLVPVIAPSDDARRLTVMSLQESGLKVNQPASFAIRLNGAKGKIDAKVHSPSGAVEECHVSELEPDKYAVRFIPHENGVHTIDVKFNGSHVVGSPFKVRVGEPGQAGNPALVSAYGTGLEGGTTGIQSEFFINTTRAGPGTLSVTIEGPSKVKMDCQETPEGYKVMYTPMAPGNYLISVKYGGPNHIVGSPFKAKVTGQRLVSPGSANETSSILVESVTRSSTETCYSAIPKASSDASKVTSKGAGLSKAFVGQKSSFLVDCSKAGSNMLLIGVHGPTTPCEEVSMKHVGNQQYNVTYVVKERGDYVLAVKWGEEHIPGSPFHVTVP
UniProt A6NHQ2: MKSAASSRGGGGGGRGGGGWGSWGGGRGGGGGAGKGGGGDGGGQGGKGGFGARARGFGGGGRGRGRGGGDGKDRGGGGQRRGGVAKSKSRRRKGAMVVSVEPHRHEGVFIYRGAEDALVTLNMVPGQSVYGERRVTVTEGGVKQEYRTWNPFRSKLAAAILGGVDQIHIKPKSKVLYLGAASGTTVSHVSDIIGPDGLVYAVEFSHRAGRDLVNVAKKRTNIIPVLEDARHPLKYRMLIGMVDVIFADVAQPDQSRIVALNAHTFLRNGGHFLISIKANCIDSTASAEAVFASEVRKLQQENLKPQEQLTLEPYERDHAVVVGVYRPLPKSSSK
UniProt Q00688: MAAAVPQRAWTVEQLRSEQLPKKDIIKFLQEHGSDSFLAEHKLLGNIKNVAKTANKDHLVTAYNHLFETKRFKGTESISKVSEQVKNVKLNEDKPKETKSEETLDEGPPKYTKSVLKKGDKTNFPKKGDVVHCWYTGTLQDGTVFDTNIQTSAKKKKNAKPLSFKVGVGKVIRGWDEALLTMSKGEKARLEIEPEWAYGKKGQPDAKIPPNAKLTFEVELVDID

Experiments:
Assay in all cases: log2 fold change, soluble protein after heating vs DMSO (PISA); higher = thermal stabilisation; K562 lysate, 10 uM; active = over 0.2 and 3.5 SD of the protein, either way, in both replicates (recomputed)
[1] = compound: C1=CC=C(C=C1)[C@H](COC2=CC3=C(C=C2)NC(=O)N3)NC(=O)C4=CC=CN(C4=O)CC5=CC(=C(C=C5)F)F
In short: (§1)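 Log-two fold change in thermal stability relative to solvent controls is reported from duplicates. For each sample, crude K562 extract from dounce-homogenised pellets in PBS pH 7.4 with 1 mM MgCl2, at 1 mg/mL protein, was treated with 10 μM compound for 30 min. Aliquots heated for 3 min across 48°C-58°C were pooled, brought to 0.5% NP-40 at 4°C and cleared at 21,000xg for 90 min. The supernatant was quantified by TMTpro 16plex LC-MS/MS with channel sums equalised.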

[2] = compound: CC1=C(SC2=C1C(=N[C@H](C3=NN=C(N32)C)CC(=O)N)C4=CC=C(C=C4)Cl)C
In short: as §1

[3] = compound: CC1=C2C(=CC=C1)N=C(N(C2=O)C3=CC=CC=C3C)CN4C=NC5=C(N=CN=C54)N
In short: as §1

[4] = compound: Cc1sc2c(c1C)C(c1ccc(Cl)cc1)=N[C@@H](CC(=O)OC(C)(C)C)c1nnc(C)n1-2
In short: as §1

[5] = compound: c1ccc([C@@H]2C[C@H]2NC2CCNCC2)cc1
In short: as §1

Measured: log2 fold change

FNIP1 isoform 3 (UniProt Q8TF40)
inactive: [1] 0.037 | [2] 0.042 | [3] 0.017 | [4] 0.103 | [5] 0.006

FDX1 (UniProt P10109)
inactive: [1] 0.068 | [2] -0.027 | [3] 0.052 | [4] 0.117 | [5] -0.097

FBXL20 (UniProt Q96IG2)
inactive: [1] 0.058 | [2] -0.049 | [3] -0.021 | [4] -0.024 | [5] -0.212

FEM1B (UniProt Q9UK73)
inactive: [1] 0.048 | [2] 0.1 | [3] -0.06 | [4] 0.003 | [5] -0.118

Copied from the results shown (two entries):
FBXL20 (UniProt Q96IG2)
inactive: [1] 0.058 | [2] -0.049 | [3] -0.021 | [4] -0.024 | [5] -0.212

FEM1B (UniProt Q9UK73)
inactive: [1] 0.048 | [2] 0.1 | [3] -0.06 | [4] 0.003 | [5] -0.118

The results go on:

FLNB isoform 8 (UniProt O75369)
inactive: [1] -0.002 | [2] 0.018 | [3] -0.023 | [4] -0.017 | [5] -0.025

FBLL1 (UniProt A6NHQ2)
inactive: [1] -0.017 | [2] 0.013 | [3] 0.037 | [4] -0.002 | [5] -0.062

FNTB (UniProt P49356)
inactive: [1] 0.023 | [2] 0.135 | [3] 0.015 | [4] -0.008 | [5] 0.038

FKBP3 (UniProt Q00688)
inactive: [1] -0.04 | [2] 0.031 | [3] -0.029 | [4] -0.003 | [5] -0.001

FLNC (UniProt Q14315)
inactive: [1] -0.008 | [2] -0.004 | [3] -0.008 | [4] -0.004 | [5] -0.053
